## Results of single-concentration screens

Source: ChEMBL document CHEMBL3988442, “University of Dundee, Small-Polar-MMV Screening Library” (2021).

Values are the deposited “Percent Effect”, in %. The record does not define 0% and 100%; most values in the screen are far below 50% and negative numbers occur (in some assays of this library far below -100). The compounds are a random part of those screened.

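Assay of Toxoplasma gondii numbers, read through their beta-galactosidase reporter with a colour substrate. Concentration: 50 µM. Higher reads as fewer parasites (inferred from which compounds were picked for retests). About 18,000 compounds were tested under these conditions; 0.94% (about 170) showed 50% or more at least once.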

compound,Percent Effect
O=C(CC1CSCCN1)NCCc1ccc(F)cc1F (centres unmarked),0.8144
Cc1cccc(N2CCN(C3CC3)CC2)n1,-10.17
COc1ncc(C(=O)N2CCc3ccccc3C2)cn1,22.67
Cc1cc(C(=O)N2CCC(F)(F)CC2)cc(C)n1,2.467
O=S(=O)(CCN1CCC(CO)CC1)c1ccc(Cl)cc1,-15.78
Cc1nn(-c2ccccc2)cc1CN,18.41
c1cc2c(cc1CN1CCCC1)CNCCO2,28.49
CC(C)Oc1cccc(-c2cnn(CCC(N)=O)c2)c1,-16.41
COc1ccc(NC(=O)N2CCCC2)c(C)n1,4.58
COc1cc(NC(=O)CNC(C)C)cc(OC)c1,-9.411
Cc1ccc(S(=O)(=O)N2CCOc3ccncc32)cc1,-8.648
CN(C)C(=O)CN1CCOC(CCc2ccccc2)C1 (centres unmarked),-6.655
CCNC(=O)[C@@H]1C[C@H](N)CN1c1nc(C)ncc1CC,-4.196
O=c1oc2ccccc2n1CC1CCOC1 (centres unmarked),2.76
O=C1CN(Cc2nc3ccsc3c(=O)[nH]2)CCN1,0
CCOc1cc(C(=O)OCCCn2cccn2)ccn1,-2.341
O=C(NCCc1ncc[nH]1)c1cccnc1SC(F)F,44.3
NC(=O)N1CCCN(CC2CCCC2)CC1,8.948
CN(CC1COCCO1)C(=O)c1ccc2[nH]nnc2c1 (centres unmarked),0.8917
Cc1ccc(C(C)NC(=O)CN2CCNC(=O)C2)cn1 (centres unmarked),10.98
CC(C)N1CCC(C(=O)NCCn2cccc2)CC1,3.784
N#Cc1cnc2c(c1)OCCO2,-9.476
OCc1ccc2c(c1)OCCO2,9.824
CC(C)c1cc(C(=O)N2CCSCC2)nc2ncnn12,-8.556
NCC(O)c1ccc(Cl)c(Cl)c1 (centres unmarked),-12.52
COC(=O)N1CCNCC1,4.994
Cc1nc(C)c(CC(=O)NCc2snnc2C)c(=O)[nH]1,-0.3944
CC(C)COCC(C)NC(=O)c1ccc2nncn2c1 (centres unmarked),28.31
CCOCCCNC(=O)Nc1nnc2ccccn12,-7.389
CNS(=O)(=O)c1ncccc1N,-16.66
COc1ccc(CCN2CCCNCC2)cc1,2.082
CNS(=O)(=O)c1ccc2c(c1)CCN2C(C)=O,19.22
CSCc1noc(CN2CCN(c3nc[nH]n3)CC2)n1,0.02657
Cc1ccc(C(=O)N2CCC(NC(N)=O)CC2)cc1Cl,-0.3877
CNc1ccc(C(=O)NC(C)Cn2cccn2)cn1 (centres unmarked),4.3
CCCOc1ccc2c(c1)CCN(C(=O)C(C)N)C2 (centres unmarked),31.28
N#Cc1ccc(CCC(=O)NCc2cccnc2)cc1,16.74
NCC1CCCN(C(N)=O)C1 (centres unmarked),-6.694
CCC1CN(Cc2ccno2)CCS1 (centres unmarked),-4.895
O=C(CN1CCCC1)NCCc1cccs1,11.47
CS(=O)(=O)CCC1CCCCN1 (centres unmarked),-3.858
COCCN(Cc1ccsc1)C(=O)[C@@H]1C[C@H](N)CN1C,23.28
OCCC1CNCCN1Cc1cccs1 (centres unmarked),-1.892
NCC1(CCO)CCOC1 (centres unmarked),11.32
CC(NS(C)(=O)=O)c1nc(C2CC2)n[nH]1 (centres unmarked),-3.579
O=C(C1Cc2cc(Cl)ccc2O1)N1CCOCC1 (centres unmarked),-4.535
Cc1cccc(C)c1NC(=O)CCCS(C)(=O)=O,-31.3
Cc1ccc(C(C)C)c(OCC(O)CNCCO)c1 (centres unmarked),4.585
COc1ccnc(CN)c1F,33.56
O=C(Cc1ccccc1F)Nc1nnc2n1CCCC2,-9.112
O=C(Cc1c(F)cccc1F)Nc1cnccc1CO,16.82
Cn1cc(C(C)(O)CN)cn1 (centres unmarked),32
CC(CCOc1ccccc1)C(=O)NN1CCOCC1 (centres unmarked),0.9046
Cc1cnc(N2CCNCC2)s1,5.738
CCN1CN(S(=O)(=O)c2cc(C)ccc2OC)CC1=O,3.976
Cc1nc(NC(=O)Nc2ccc(N(C)C)nc2)oc1C,-8.27
CC1CN(C)CCN1CC(=O)N1CCc2sccc2C1 (centres unmarked),-19.15
CNC(=O)N(Cc1ccco1)C1CCN(C)CC1,-1.028
CCN(CC)C(=O)[C@@H]1C[C@@H](N)CN1C(=O)CS(C)(=O)=O,2.262
O=c1ccc(Br)cn1Cc1noc(C2CC2)n1,-22.47
COCC(O)CNc1nc(CC(C)C)ns1 (centres unmarked),13.62
NCCCOCC1CCOC1 (centres unmarked),15.41
CC(C)c1nnc(CNC(=O)C2=COCCC2)n1C,17.96
COC(=O)CC1CNc2ccccc21 (centres unmarked),3.765
CC(C)CN1CCNC(=O)C1,5.373
CC(NC(=O)Cn1ccc(=O)n(C)c1=O)c1cccs1 (centres unmarked),-2.458
CC(C)O[C@@H]1CCNC1,-2.543
CCNc1ncc(C(=O)NC(CCOC)C(C)C)s1 (centres unmarked),9.934
Cc1ccc(CN2CCCC(O)(CO)CC2)cc1C (centres unmarked),0.2468
Cc1ccc(F)c(N2CCC(N)CC2)c1,10.42
COCCN1CCN(CCS(=O)(=O)C(F)(F)F)CC1,-0.08039
CC1CCCN(Cc2cc(=O)n(C)c(=O)n2C)C1 (centres unmarked),17.4
Cn1nc(C(=O)Nc2nc(CC(N)=O)cs2)ccc1=O,-4.234
Cc1ccc2c(N)noc2n1,-32.32
CN1C(=O)CCc2cc(C(=O)N3CCCC3)ccc21,-31.73
NCC1CCCN1CCc1ccccc1 (centres unmarked),-0.4728
CC(C)CC1CCN(C(=O)CCn2cnnn2)C1 (centres unmarked),-2.329
Cc1cc(C2CCCN2CC(=O)N2CCOCC2)on1 (centres unmarked),36.96
CCNC(=O)c1noc(-c2ccc[nH]c2=O)n1,-3.733
CCCS(=O)(=O)N1CCC(O)(CN2CCOCC2)CC1,-8.454
COCCCN1CCN(c2ccccc2OC)CC1,-0.6809
CCC(OC)c1n[nH]c(=O)n1Cc1cccc(OC)c1 (centres unmarked),-6.855
NCc1cccc(C(F)(F)F)n1,30.32
CN(C)C(=O)OC1CCNCC1,-5.787
COC(=O)CCN1CCN(C(=O)c2ccco2)C(C)C1 (centres unmarked),-7.247
CN1CCN(c2cccnc2)CC1,-0.0268
O=C1CCCc2ncc(C(F)(F)F)cc21,4.767
CC(Oc1ccc(N(C)S(C)(=O)=O)cc1)C(=O)N(C)C (centres unmarked),-12.05
O=C(NCCc1cccs1)c1cc[nH]n1,7.034
CNC(=O)NC(=O)CCN1CCCC(C)C1 (centres unmarked),60.28
COc1cc(CNc2ncnc3c2cnn3C)ccn1,23.09
CO[C@@H]1COCC[C@H]1N,12.04
O=C(NCCNc1cccc(Br)c1)C1CCOC1 (centres unmarked),-10.89
CCOCCN1CCN(C2(C(N)=O)CCCCC2)CC1,-7.006
Nc1ccn(Cc2ccccc2)n1,2.684
Nc1cncc(-c2ccc(CN3CCCC3)cn2)c1,-20.15
Cc1c[nH]c(CN(C)C(=O)Cc2nonc2C)n1,14.38

Some entries from above, unchanged:

{"compound": "CN(CC1COCCO1)C(=O)c1ccc2[nH]nnc2c1", "stereo": "centres unmarked", "Percent Effect": 0.8917}
{"compound": "COCCCN1CCN(c2ccccc2OC)CC1", "Percent Effect": -0.6809}
{"compound": "O=C1CCCc2ncc(C(F)(F)F)cc21", "Percent Effect": 4.767}
{"compound": "CNS(=O)(=O)c1ccc2c(c1)CCN2C(C)=O", "Percent Effect": 19.22}
{"compound": "CC(NC(=O)Cn1ccc(=O)n(C)c1=O)c1cccs1", "stereo": "centres unmarked", "Percent Effect": -2.458}
{"compound": "Cc1cnc(N2CCNCC2)s1", "Percent Effect": 5.738}
{"compound": "Cc1cccc(N2CCN(C3CC3)CC2)n1", "Percent Effect": -10.17}
{"compound": "NCC1CCCN1CCc1ccccc1", "stereo": "centres unmarked", "Percent Effect": -0.4728}
{"compound": "CCC1CN(Cc2ccno2)CCS1", "stereo": "centres unmarked", "Percent Effect": -4.895}
{"compound": "N#Cc1cnc2c(c1)OCCO2", "Percent Effect": -9.476}